According to patent publication US20190218553:

Molecular target: von Willebrand factor (VWF) (Homo sapiens) (UniProt P04275)
Experiment: filter binding
Settings: NB, 2 mM CaCl2, 37 C, purified native protein, label: 5'-32P
[1] = 2'-F U7,G8,C9,C10,C11,U12,A19,C20,G21,C22,A23,U30, rest 2'-OMe, 3' idT

“ACGAACUGCCCUCAGCUACUUUCAUGUUGCUGACGCACAGACGU [T25 vrt1]”: no binding (all purines 2'-OMe, all pyrimidines 2'-F, 3' idT).

“ACGAACUGCCCUCAGCUACUUUCAUGUUGCUGACGCACAGACGU [T25 vrt2]”: no binding (all 2'-OMe, 3' idT).

“ACGAACUGCCCUCAGCUACUUUCAUGUUGCUGACGCACAGACGU [T25 vrt7]”: no binding (2'-OMe G8,A33,G35,A37, other purines ribo, pyrimidines 2'-F, 3' idT).

“ACGAACUGCCCUCAGCUACUUUCAUGUUGCUGACGCACAGACGU [T25 vrt8]”: no binding (2'-OMe U7-U12 and A33-A37, other purines ribo, other pyrimidines 2'-F, 3' idT).

“ACGAACUGCCCUCAGCUACUUUCAUGUUGCUGACGCACAGACGU [T25 vrt18]”: no binding (2'-OMe G8,C36, other purines ribo, other pyrimidines 2'-F, 3' idT).

“ACGAACUGCCCUCAGCUACUUUCAUGUUGCUGACGCACAGACGU [T25 vrt19]”: no binding (2'-OMe C9,G35, other purines ribo, other pyrimidines 2'-F, 3' idT).

“ACGAACUGCCCUCAGCUACUUUCAUGUUGCUGACGCACAGACGU [T25 vrt20]”: no binding (2'-OMe C10,C11,C34, purines ribo, other pyrimidines 2'-F, 3' idT).

“ACGAACUGCCCUCAGCUACUUUCAUGUUGCUGACGCACAGACGU [T25 vrt22]”: no binding (2'-OMe C10, purines ribo, other pyrimidines 2'-F, 3' idT).

“ACGAACUGCCCUCAGCUACUUUCAUGUUGCUGACGCACAGACGU [T25 vrt23]”: no binding (2'-OMe C11, purines ribo, other pyrimidines 2'-F, 3' idT).

ACGAACUGCCCUCGACGCACAGACGU [T57]: no binding (2'-F C and U, 2'-OH A and G, 3' idT, protein details: factor VIII free, Haematologic Technologies Inc., variant of T25).

“ACGAACUGCCCUCGAUCGACGCACAGACGU [T59 vrt20]”: no binding (2'-F C9,C10,C11,C20,C22,U30, ribo G8, rest 2'-OMe, 3' idT).

“ACGAACUGCCCUCGAUCGACGCACAGACGU [T59 vrt22]”: no binding (2'-F U7,C9,C10,C11,U12,C20,C22,U30, ribo G8, rest 2'-OMe, 3' idT).

“ACGAACUGCCCUCGAUCGACGCACAGACGU [T59 vrt27]”: no binding (2'-F C9,C10,C11,C20,U30, ribo G21, rest 2'-OMe, 3' idT).

“ACGAACUGCCCUCGAUCGACGCACAGACGU [T59 vrt28]”: no binding (2'-F C9,C10,C11,C20,C22,U30, rest 2'-OMe, 3' idT).

“ACGAACUGCCCUCGAUCGACGCACAGACGUAAAAA [T83 vrt8]”: no binding [1].

“ACGAACUGCCCUCGAUCGACGCACAGACGUACACG [T84 vrt8]”: no binding [1].

“ACGAACUGCCCUCGAUCGACGCACAGACGUACCCG [T82 vrt8]”: no binding [1].

“ACGAACUGCCCUCGAUCGACGCACAGACGUUUUUU [T79 vrt8]”: no binding [1].

“ACGAACUGCCCUCGUAUUAUUUCGACGCACAGACGU [T89 vrt8]”: no binding (2'-F U7,G8,C9,C10,C11,U12,A25,C26,G27,C28,A29,U36, rest 2'-OMe, 3' idT).

“ACGAACUGCCCUCGUUUCAUCGACGCACAGACGU [T86 vrt8]”: no binding (2'-F U7,G8,C9,C10,C11,U12,A23,C24,G25,C26,A27,U34, rest 2'-OMe, 3' idT).

“GGGAGGUGGACGAACUGCCCUCUACUUUCAUGUUGCUGACGCACAGACGACUCGCUG [T18]”: no binding (2'-F C and U, 2'-OH A and G, protein details: factor VIII free, Haematologic Technologies Inc., variant of VWF9.14 full length).

Negatives hold for the conditions tested.
